Data: patent US7060293B1, “Powder-layered oral dosage forms” (Purdue Pharma, priority 1994, dated 2006)
Structures can show the parent of a compound that is named as a salt.

Experiment: Bulk density (poured and tapped) of drug powders and processing aid
Format: physicochemical
Conditions: powder used in the examples

For `CN1CC[C@]23c4c5ccc(O)c4O[C@H]2[C@@H](O)C=C[C@H]3[C@H]1C5` [morphine sulfate, 7,8 didehydro-,5 α-epoxy-17-methylmorphinan-3,6 α-diol sulfate (2:1) salt pentahydrate], the bulk density was “about 0.44 g/ml”.
